Data on ten compounds can be found in US20090137411A1, “Methods and biochips for detecting small molecule compounds” (priority 2004, published 2009).

For series [1], the system named is anti-drug mouse monoclonal antibodies. The experiment in a line: Biochip competitive immunoassay for prohibited substances in urine. Format: binding. As to conditions: lowest concentration detected by the chip, signal 3 SD lower than the mean of the negative control.
Series [2] has as its system antibody that specifically binds to enrofloxacin, antibody that specifically binds to sulfimidine, antibody that specifically binds to streptomycin. The experiment in a line: Biochip competitive immunoassay for residual veterinary drugs. As to conditions: detection system (biochip) for residual veterinary drugs. Type of series: binding.

Compound `CC(N)Cc1ccccc1` (centres unmarked) [Amphetamine, amphetamine] returned a Detection limit in series [1] of 2.0 µg/L.

With `CN[C@@H](C)Cc1ccccc1` [Methamphetamine], the Detection limit in series [1] came to 3.1 µg/L.

With `CCC(=O)C(CC(C)N(C)C)(c1ccccc1)c1ccccc1` (centres unmarked) [Methadone, methadone], the Detection limit in series [1] was found to be 19.0 µg/L; in series [1] (listed as methadone), 19 µg/L.

For gentamicin, the Detection limit in series [1] turned out to be 1.1 µg/L.

For `C[C@H]1O[C@@H](O[C@H]2[C@@H](O)C[C@H](O[C@H]3[C@@H](O)C[C@H](O[C@H]4CC[C@@]5(C)[C@H](CC[C@@H]6[C@@H]5C[C@@H](O)[C@]5(C)[C@@H](C7=CC(=O)OC7)CC[C@]65O)C4)O[C@@H]3C)O[C@@H]2C)C[C@H](O)[C@@H]1O` [Digoxin, digoxin], the Detection limit in series [1] is 1.0 µg/L.

The compound `C[C@]12CC[C@H]3[C@@H](CCC4=CC(=O)CC[C@@]43C)[C@@H]1CC[C@@H]2O` [Testosterone] showed a Detection limit in series [1] of 0.4 µg/L.

For the compound `CCN1CCN(c2cc3c(cc2F)c(=O)c(C(=O)O)cn3C2CC2)CC1` [Enrofolxacin, enrofloxacin], in series [2], the Linear range was 1 to 50 ng/g and the Sensitivity is 1 ng/g.

As to `CN1CC[C@]23c4c5ccc(O)c4O[C@H]2[C@@H](O)C=C[C@H]3[C@H]1C5` [Morphine, morphine], in series [1], the Detection limit is 0.2 µg/L.

In series [2], `Cc1cc(C)nc(NS(=O)(=O)c2ccc(N)cc2)n1` [Sulfadimidine, sulfadimidine] showed a Linear range of 0.5 to 20 ng/g and a Sensitivity of 0.5 ng/g.

For the compound `[H]/N=C(/N)N[C@H]1[C@H](O)[C@@H](O)[C@H](O[C@@H]2O[C@@H](C)[C@](O)(C=O)[C@H]2O[C@@H]2O[C@@H](CO)[C@H](O)[C@@H](O)[C@@H]2NC)[C@@H](N/C(N)=N\[H])[C@@H]1O` [Streptomycin, streptomycin], in series [2], the Linear range lay within 5 to 200 ng/g and the Sensitivity was 5 ng/g.
